Experimental data: PubChem BioAssay AID1259424 (University of Nebraska Medical Center, 2018)

Purpose: 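Find knockdowns that reproduce the expression shifts seen after KSR1 loss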 (primary screen)
System: human HCT116 colon cancer cells
Reagents: siRNA pool against human genes, 50 nM
Measurement: 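Log2 levels of six mRNAs (branched-DNA multiplex), adjusted by two reference genes and the non-targeting median, then scored against the average KSR1 knockdown pattern as Pearson r and euclidean distance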
Direction: mean correlation with KSR1 profile: higher = expression change more like KSR1 knockdown
In all, the deposit lists about 14,000 reagents; below is an unselected part. 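Higher correlation or smaller distance means closer resemblance to KSR1 loss; control wells, including KSR1 knockdowns, recur on many plates.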 Reagents against one gene are numbered here. A reagent listed more than once was tested more than once; the source does not tell the runs apart. Not all columns of the deposit are shown. Reagent sequences are not shown. Not stated in the record: the time to read-out.

The opening 3 entries, to show the layout:
ADORA3
- mean correlation with KSR1 profile: 0.797

SIK1
- mean correlation with KSR1 profile: 0.476

ARHGEF12
- mean correlation with KSR1 profile: -0.314

The list itself, from the start:
ADORA3
- mean correlation with KSR1 profile: 0.797

SIK1
- mean correlation with KSR1 profile: 0.476

ARHGEF12
- mean correlation with KSR1 profile: -0.314

PCDH9
- mean correlation with KSR1 profile: -0.541

MFRP
- mean correlation with KSR1 profile: 0.67

TSPYL1
- mean correlation with KSR1 profile: 0.0231

MMP24
- mean correlation with KSR1 profile: -0.589

RAB39A
- mean correlation with KSR1 profile: -0.316

EN2
- mean correlation with KSR1 profile: 0.804

GART
- mean correlation with KSR1 profile: -0.0443

TRIOBP
- mean correlation with KSR1 profile: -0.616

GGT3P
- mean correlation with KSR1 profile: 0.432

WDR6
- mean correlation with KSR1 profile: 0.0258

ELF2
- mean correlation with KSR1 profile: 0.623

LY96
- mean correlation with KSR1 profile: -0.308

WDR7
- mean correlation with KSR1 profile: 0.173

PTGES2
- mean correlation with KSR1 profile: 0.564

ESYT3
- mean correlation with KSR1 profile: 0.777

GLDC
- mean correlation with KSR1 profile: 0.015

NEDD8
- mean correlation with KSR1 profile: -0.653

AVPR1B
- mean correlation with KSR1 profile: 0.403

AVPR1B
- mean correlation with KSR1 profile: 0.317

MEA1
- mean correlation with KSR1 profile: -0.343

ZNF649
- mean correlation with KSR1 profile: -0.734

DIDO1 #1
- mean correlation with KSR1 profile: 0.459

DIDO1 #2
- mean correlation with KSR1 profile: 0.00421

FBLN5
- mean correlation with KSR1 profile: -0.453

LHX3
- mean correlation with KSR1 profile: 0.414
